# Library screening results

Sequences of proteins named here, by UniProt entry; tags and fusion partners are left off.
UniProt E9BF75, entry or part of it: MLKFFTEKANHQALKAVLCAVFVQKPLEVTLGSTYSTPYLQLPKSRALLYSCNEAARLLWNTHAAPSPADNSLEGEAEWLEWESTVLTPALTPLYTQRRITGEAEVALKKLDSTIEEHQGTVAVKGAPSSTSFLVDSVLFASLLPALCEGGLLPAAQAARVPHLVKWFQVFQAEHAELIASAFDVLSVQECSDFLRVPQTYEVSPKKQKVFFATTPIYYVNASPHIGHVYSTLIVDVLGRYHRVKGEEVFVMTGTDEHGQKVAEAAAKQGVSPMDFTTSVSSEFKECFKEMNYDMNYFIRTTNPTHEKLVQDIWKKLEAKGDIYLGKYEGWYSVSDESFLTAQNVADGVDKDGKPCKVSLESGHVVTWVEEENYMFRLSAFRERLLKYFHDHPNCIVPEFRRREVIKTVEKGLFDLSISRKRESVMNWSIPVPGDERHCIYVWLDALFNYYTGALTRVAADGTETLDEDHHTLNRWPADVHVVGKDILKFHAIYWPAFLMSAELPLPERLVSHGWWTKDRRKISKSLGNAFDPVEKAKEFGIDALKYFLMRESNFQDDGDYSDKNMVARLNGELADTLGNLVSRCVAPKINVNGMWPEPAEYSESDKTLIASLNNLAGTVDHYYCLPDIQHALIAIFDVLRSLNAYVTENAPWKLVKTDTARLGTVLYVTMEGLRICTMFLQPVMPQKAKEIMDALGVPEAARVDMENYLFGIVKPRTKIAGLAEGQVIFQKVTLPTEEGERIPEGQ

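Primary screen of methionyl-tRNA synthetase; the read-out is not stated. Target: Methionyl-tRNA synthetase (putative), Leishmania donovani (UniProt E9BF75). The test concentration is not given. The values are filed as inhibition. Size under these conditions: about 68,000 compounds, about 24 of them at 50% or above in at least one test.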

Results are percentages, as filed.
The controls that fix the scale are not given in the record; negative values are as filed.
The compounds are a random part of those screened.

| Compound | Inhibition |
|---|---|
| `FC(F)(F)c1cc(C2CCN(c3cnccn3)CC2)n2ccnc2n1` | 15.41 |
| `CN1CCN(c2cc(CCNC(=O)C3CCC3)nc(C3CC3)n2)CC1` | 12.67 |
| `Cc1ccccc1C(=O)N1CC[C@@H](N(C)C)[C@@H]1Cc1cnn(C)c1` | 5.473 |
| `O=C(c1cnccn1)N1CC[C@@H]2CO[C@@H](CN3CCCC3)[C@@H]2C1` | 6.569 |
| `CN(C)C(=O)c1cc2c(nc1NCC1CC1)CCN(CC1CC1)CC2` | 8.629 |
| `O=C(c1ccnnc1)N1C[C@@H]2CN(c3ncccn3)C[C@@H]2C1` | 2.757 |
| `O=C(NCCN1CCOCC1)c1cc(-c2ccc3c(c2)CCO3)n[nH]1` | 10.37 |
| `COCCCn1cnnc1C(C)NC(=O)c1[nH]c2ccc(C)cc2c1C` (configuration not stated) | 4.835 |
| `CCc1ccc(CNC[C@H]2C[C@@H](CO)N(C)[C@H]2c2ccccc2F)o1` | 12.03 |
| `CSCC(C)(O)CNC(=O)c1cc(Br)ccc1Cl` (configuration not stated) | 8.374 |
| `CN1CCN(c2ccc(Cl)cc2NC(=O)c2ccco2)CC1` | 6.269 |
| `CN(CCC(N)=O)Cc1cc(Br)cs1` | 13.24 |
| `CCN1CCC2(CC1)CC(CC(=O)N(C)C)c1ccc(F)cc12` (configuration not stated) | -3.519 |
| `Cc1nc(C2CCCN2C(=O)c2ccc(N(C)C)nn2)no1` (configuration not stated) | 11.11 |
| `O=C(c1ccco1)N1CCC2(CCCN(c3ncc(F)cn3)C2)C1` (configuration not stated) | 0.5168 |
| `O=C(Cc1ccccc1)N1CCC2(CC1)COCCN2CC1CC1` | 8 |
| `CC(=O)N1CCc2[nH]cnc2C12CCN(CC1CCOC1)CC2` (configuration not stated) | 8.933 |
| `Cc1cc(C)n(Cc2cc(C(=O)N3CCCC3c3ccccn3)n[nH]2)n1` (configuration not stated) | 10.21 |
| `Cc1oncc1C(=O)N1CC[C@H]2[C@@H]1CCC(=O)N2c1cccnc1` | 17.58 |
| `Cc1[nH]nc(CCC(=O)NCC2CCCN(C3CCCC3)C2)c1C` (configuration not stated) | 17.72 |
| `NS(=O)(=O)N1CCc2ccc(NC(=O)CC(F)(F)F)cc21` | 16.3 |
| `CC(CNC(=O)c1cc(C2CC2)on1)N1CCc2ccccc21` (configuration not stated) | 9.29 |
| `CCC(C(=O)NCC1=CCCN(C)C1)c1ccccc1` (configuration not stated) | 16.27 |
| `Cc1ccc(O)c(CNc2cccc(OCCF)c2)n1` | 8.403 |
| `CCc1nc(CN2CCCN(Cc3noc(C4CC4)n3)CC2)cs1` | 22.74 |
| `COc1cc(CNc2nc(C3CC3)no2)cc(OC)c1OC` | -5.974 |
| `Cc1cn2nc(N3CCCN(Cc4noc(C)n4)CC3)sc2n1` | 14.58 |
| `O=C(NCC1CCOCC1)[C@@H]1C[C@@H]2CCN(Cc3ccco3)C[C@H]2O1` | 24.69 |
| `Cc1cc(C)c(CNC(=O)NCCNc2cnccn2)c(=O)[nH]1` | 8.993 |
| `O=C(NC1CCCN(c2ccccc2Cl)C1)c1nc(=O)[nH][nH]1` (configuration not stated) | 7.788 |
| `NC(=O)c1cc(C2CCCN(CCc3ccc4c(c3)CCO4)C2)n[nH]1` (configuration not stated) | 14.86 |
| `Cc1cc(CN2CCN(C(=O)NC(C)Cn3ccnc3)CC2)on1` (configuration not stated) | 4.918 |
| `CN(Cc1ccco1)[C@@H]1CN(Cc2cccs2)C[C@@H]2CCCO[C@@H]21` | 6.536 |
| `CCn1cncc1C1CC(=O)Nc2c1c(C)nn2-c1ccc(C)cc1` (configuration not stated) | 17.91 |
| `CN(C)CCN1CCO[C@H]2CN(Cc3cnn(C)c3)C[C@H]21` | 14.5 |
| `c1ccc(COC[C@@H]2CC[C@H]3[C@H](CCN3c3ncccn3)O2)nc1` | 17.58 |
| `COCc1cccc(CNc2cnn(C(C)(C)C)c(=O)c2Cl)c1` | 7.521 |
| `CO[C@H]1CN(C(=O)c2ccc(C)o2)[C@@H]2CCCO[C@H]12` | 14.38 |
| `Cc1nc(C)c(CCN2CCC(Oc3ccccc3F)CC2)s1` | 17.13 |
| `CCN(CC)c1ccc(NS(=O)(=O)c2cnn(C(C)C)c2)cn1` | 8.511 |
| `c1cncc(-c2noc(CCNc3ncnc4c3CCNCC4)n2)c1` | 11.2 |
| `CCN(CC)CCNS(=O)(=O)c1cccc(CSC)c1` | 13.65 |
| `CCN1CC2(CC1=O)CN(C(C)=O)CCN(C(=O)c1ccco1)C2` (configuration not stated) | 8.5 |
| `CCN(CCc1nccs1)C(=O)c1ncoc1C` | 2.903 |
| `CN(C)Cc1nnc(C2CCN(c3ncccn3)CC2)n1C1CC1` | 7.116 |
| `Cc1c(C2CCCN(C(=O)c3cccnc3)C2)n2c(nc1=O)CCC2` (configuration not stated) | 7.812 |
| `Cc1ncsc1C(=O)N1CCc2[nH]nc(-c3ccc4c(c3)OCO4)c2C1` | 1.031 |
| `O=C(O)c1nnn(-c2ccccc2F)c1-c1ccncc1` | 1.749 |
| `COC(=O)c1ccc(N2CCN(C(=O)C3CC3)C(C)C2)cc1` (configuration not stated) | 14.29 |
| `CCC(O)Cn1nc(-c2ccc(C(=O)O)cc2)cc1-c1cccc(F)c1` (configuration not stated) | 2.812 |
| `Cc1cncc(C(=O)N2CCC3(CC2)NC(=O)CC3c2ccccc2)c1` (configuration not stated) | 8.571 |
| `CC(C)OCCCN(CC(=O)N1CCNCC1)C(=O)c1cccc(Cl)c1` | 18.66 |
| `CCC(C)C(=O)NCc1cccc(OCCN(C)C2CCOCC2)c1` (configuration not stated) | 1.087 |
| `CCc1nccn1C1CCCN(C(=O)c2ccc(C(N)=O)cn2)C1` (configuration not stated) | 13.05 |
| `CCn1ccnc1CNCC1CCN(CC(O)c2ccccc2)CC1` (configuration not stated) | 2.454 |
| `O=C(c1ccc(-n2cccn2)nc1)N1CCCC(n2cccn2)C1` (configuration not stated) | 13.11 |
| `Cc1ccc(CN2C[C@H](OCC3CCOCC3)[C@H]3COC[C@H]32)o1` | 4.945 |
| `OC1(CN2CCCC2)COCCN(c2cc(C(F)(F)F)ccn2)C1` (configuration not stated) | 13.32 |
| `CCn1ncc(CN2CCC(O)(Cn3ccc4ncccc43)CC2)c1C` | 17.71 |
| `CCC(=O)N1CCC(c2nc(C)c3c(n2)N(C)CCC3)CC1` | 0.5249 |
| `Cc1nn(CC(C)C)c(C)c1CC(=O)N1CCCC(CNS(C)(=O)=O)C1` (configuration not stated) | 3.876 |
| `CN(C)CCN(C)C(=O)Nc1cc(F)cc(N2CCCC2)c1` | 14.25 |
| `O=C(NCCCn1nc2ccccn2c1=O)NCc1ccccc1` | 18.71 |
| `CN(C(=O)c1ccncc1)c1nnc(C2CCOC2)s1` (configuration not stated) | 9.884 |
| `Cc1nc2c(c(N(C)CC3Cc4ccccc4CN3C)n1)CCNCC2` (configuration not stated) | 7.617 |
| `Cn1cc(C2(C)CN(Cc3ccc(N4CCCC4)nc3)CCO2)cn1` (configuration not stated) | 4.62 |
| `CC(C)S(=O)(=O)NCC1CCCN(C(=O)c2ccc(Cl)cc2)C1` (configuration not stated) | 11.04 |

Once more, the final 9:

Compound,Inhibition
CCn1ncc(CN2CCC(O)(Cn3ccc4ncccc43)CC2)c1C,17.71
CCC(=O)N1CCC(c2nc(C)c3c(n2)N(C)CCC3)CC1,0.5249
Cc1nn(CC(C)C)c(C)c1CC(=O)N1CCCC(CNS(C)(=O)=O)C1 (configuration not stated),3.876
CN(C)CCN(C)C(=O)Nc1cc(F)cc(N2CCCC2)c1,14.25
O=C(NCCCn1nc2ccccn2c1=O)NCc1ccccc1,18.71
CN(C(=O)c1ccncc1)c1nnc(C2CCOC2)s1 (configuration not stated),9.884
Cc1nc2c(c(N(C)CC3Cc4ccccc4CN3C)n1)CCNCC2 (configuration not stated),7.617
Cn1cc(C2(C)CN(Cc3ccc(N4CCCC4)nc3)CCO2)cn1 (configuration not stated),4.62
CC(C)S(=O)(=O)NCC1CCCN(C(=O)c2ccc(Cl)cc2)C1 (configuration not stated),11.04

Data taken from ChEMBL document CHEMBL3988442, “University of Dundee, Small-Polar-MMV Screening Library” (2021).